Measurements from paper PMC8274477.
No constants are given. Whether binding was seen depends on the method and setting. Some results given as binding are weak or reduced against the parent protein; the word gives no strength.

Amino acid sequences for entries named in this document (tags omitted).
UniProt P0CG20: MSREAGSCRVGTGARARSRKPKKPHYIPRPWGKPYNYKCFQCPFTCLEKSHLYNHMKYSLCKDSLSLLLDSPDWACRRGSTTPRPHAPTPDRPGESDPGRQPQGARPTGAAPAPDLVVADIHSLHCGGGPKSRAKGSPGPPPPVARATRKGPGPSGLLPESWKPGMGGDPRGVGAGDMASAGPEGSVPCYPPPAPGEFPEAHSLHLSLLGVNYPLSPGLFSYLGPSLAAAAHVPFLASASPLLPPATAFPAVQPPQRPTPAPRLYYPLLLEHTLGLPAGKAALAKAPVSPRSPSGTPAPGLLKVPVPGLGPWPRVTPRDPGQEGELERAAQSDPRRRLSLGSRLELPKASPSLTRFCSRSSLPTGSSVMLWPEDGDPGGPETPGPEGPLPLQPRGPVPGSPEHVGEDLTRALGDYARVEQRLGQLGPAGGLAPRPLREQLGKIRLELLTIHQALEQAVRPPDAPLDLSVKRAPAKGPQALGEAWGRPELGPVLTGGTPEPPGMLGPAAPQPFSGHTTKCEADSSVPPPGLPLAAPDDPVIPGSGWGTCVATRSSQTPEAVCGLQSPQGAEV

Tests used:
Assay in all cases: peptide or protein array; HuProt human proteome microarray; 5 ug/5 ml biotin-labelled LUBAC or OTULIN in solution, 1 h at room temperature; Cy5-streptavidin, scanned at 635 nm; BSA as negative control; hits: Z-score >= 3 and I_(Mean_Ratio) >= 1.4; both purified
ADAMTSL4 (human) = target: T1, ADAMTSL4 (human) (UniProt Q6UY14)
T1 sequence: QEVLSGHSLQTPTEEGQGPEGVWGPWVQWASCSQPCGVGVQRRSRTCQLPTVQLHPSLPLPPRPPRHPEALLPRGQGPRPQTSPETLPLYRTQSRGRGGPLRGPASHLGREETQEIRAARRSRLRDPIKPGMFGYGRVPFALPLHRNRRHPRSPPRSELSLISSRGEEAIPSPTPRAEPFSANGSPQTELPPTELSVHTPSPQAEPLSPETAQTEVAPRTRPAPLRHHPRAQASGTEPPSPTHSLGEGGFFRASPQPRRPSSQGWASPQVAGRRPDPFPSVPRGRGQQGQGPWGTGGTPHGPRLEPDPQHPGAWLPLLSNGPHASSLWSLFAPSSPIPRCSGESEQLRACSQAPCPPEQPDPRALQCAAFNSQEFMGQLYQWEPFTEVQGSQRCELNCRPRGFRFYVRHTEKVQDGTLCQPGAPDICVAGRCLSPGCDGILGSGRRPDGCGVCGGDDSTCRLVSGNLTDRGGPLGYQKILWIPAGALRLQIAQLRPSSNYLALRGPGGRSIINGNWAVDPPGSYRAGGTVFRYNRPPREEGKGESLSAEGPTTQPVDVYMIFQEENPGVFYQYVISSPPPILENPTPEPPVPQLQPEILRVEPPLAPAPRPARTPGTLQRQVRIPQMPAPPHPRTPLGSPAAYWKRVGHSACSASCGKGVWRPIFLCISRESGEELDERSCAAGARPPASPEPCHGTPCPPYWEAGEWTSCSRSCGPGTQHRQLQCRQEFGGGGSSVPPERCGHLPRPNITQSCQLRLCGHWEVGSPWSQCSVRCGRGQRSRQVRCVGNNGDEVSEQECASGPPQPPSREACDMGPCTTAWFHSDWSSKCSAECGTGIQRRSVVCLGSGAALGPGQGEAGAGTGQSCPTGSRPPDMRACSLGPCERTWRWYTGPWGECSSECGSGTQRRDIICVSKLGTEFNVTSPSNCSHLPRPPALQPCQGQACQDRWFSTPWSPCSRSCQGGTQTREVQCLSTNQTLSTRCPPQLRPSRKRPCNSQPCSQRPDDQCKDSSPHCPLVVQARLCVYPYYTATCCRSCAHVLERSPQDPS

PRR35 (human) = PRR35 (human) (UniProt P0CG20)
SLFN5 (human) = target: T2, SLFN5 (human) (UniProt Q08AF3)
T2 sequence: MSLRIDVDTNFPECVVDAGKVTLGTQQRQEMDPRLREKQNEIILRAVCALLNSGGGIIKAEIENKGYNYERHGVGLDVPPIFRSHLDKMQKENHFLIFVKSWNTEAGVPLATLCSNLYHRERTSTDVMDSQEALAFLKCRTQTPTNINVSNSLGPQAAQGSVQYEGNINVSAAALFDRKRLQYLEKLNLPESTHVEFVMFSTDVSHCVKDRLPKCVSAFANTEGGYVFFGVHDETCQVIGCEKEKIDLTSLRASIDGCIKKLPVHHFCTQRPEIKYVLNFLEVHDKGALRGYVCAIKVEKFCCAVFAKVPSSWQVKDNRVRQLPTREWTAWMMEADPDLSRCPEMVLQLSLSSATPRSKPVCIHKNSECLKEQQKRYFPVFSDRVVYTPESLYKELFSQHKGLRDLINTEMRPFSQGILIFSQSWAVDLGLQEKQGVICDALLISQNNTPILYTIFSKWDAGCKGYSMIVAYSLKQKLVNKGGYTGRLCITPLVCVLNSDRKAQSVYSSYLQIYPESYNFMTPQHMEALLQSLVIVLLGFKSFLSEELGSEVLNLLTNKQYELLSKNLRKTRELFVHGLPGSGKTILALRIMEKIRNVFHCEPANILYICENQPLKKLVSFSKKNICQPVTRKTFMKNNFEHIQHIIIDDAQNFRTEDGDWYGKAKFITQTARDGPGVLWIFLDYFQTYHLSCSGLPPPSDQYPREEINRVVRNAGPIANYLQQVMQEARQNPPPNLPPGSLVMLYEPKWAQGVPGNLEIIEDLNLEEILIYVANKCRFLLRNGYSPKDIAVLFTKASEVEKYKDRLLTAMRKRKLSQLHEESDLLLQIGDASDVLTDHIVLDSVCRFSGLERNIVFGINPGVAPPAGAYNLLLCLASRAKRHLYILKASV

Measured: binding

linear ubiquitin chain assembly complex (LUBAC), purified as HIS-tagged HOIP with the subunit HOIL-1, biotin-labelled (from UniProt Q96EP0 1-1072; Q9BYM8 1-510)
binds: all assays above
